For one experiment, the target named is T1, Msd1-GFP (Drosophila) (UniProt Q9W0G7).
T1 sequence: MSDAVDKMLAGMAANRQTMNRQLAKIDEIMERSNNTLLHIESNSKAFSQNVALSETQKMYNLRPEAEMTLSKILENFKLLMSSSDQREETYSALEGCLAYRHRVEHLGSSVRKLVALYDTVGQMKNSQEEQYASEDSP
The experiment can be described thus: co-IP.

By UniProt entry, the sequences of proteins in these tests, tags left out.
UniProt P42271: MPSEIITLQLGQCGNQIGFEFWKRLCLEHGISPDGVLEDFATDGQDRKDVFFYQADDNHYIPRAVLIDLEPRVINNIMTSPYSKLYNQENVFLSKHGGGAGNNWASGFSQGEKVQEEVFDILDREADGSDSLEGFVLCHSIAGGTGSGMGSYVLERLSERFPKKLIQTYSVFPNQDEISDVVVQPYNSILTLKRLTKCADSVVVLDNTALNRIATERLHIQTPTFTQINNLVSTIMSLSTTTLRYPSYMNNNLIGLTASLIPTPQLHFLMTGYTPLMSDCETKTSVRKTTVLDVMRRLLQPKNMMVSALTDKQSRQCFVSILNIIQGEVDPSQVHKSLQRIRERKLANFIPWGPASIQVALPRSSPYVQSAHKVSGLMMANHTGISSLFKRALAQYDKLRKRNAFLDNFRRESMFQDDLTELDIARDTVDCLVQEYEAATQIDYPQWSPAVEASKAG

In experiment [1] the target is γ-Tubulin-GFP (Drosophila) (UniProt P42271). The experiment is described as follows: co-IP.

Results are given in words; binding and its absence hold for the method and conditions named. Binding seen in cells or lysates may run through a third protein. Some entries that bind do so weakly or less than the wild type. For some assays here: Sequences can lack the tags named with a protein.

B1: Dgt6 (protein, UniProt Q9VAP2 1-654)
chain: MDRTIIAPWKAEEKEQSEKLHRKLQGLALVHPLPDELRKLIAWDMFLKPNQVAFVHVMHYLFRLLDPAEFKRRFFWPITDKKSEANFRSSTVEYLKHLNEKHQLHWANIKSYLVVMPGGMRFINFLLEFVGFVIQELIKQREKSLGLEAGTPNVSAKVMARQNAVMKEYASSYVVNLEENTALLRDKTQKIRRLMADLSADMGVPEEQLADDGFLDEFEATAALGVERVITQPTERKFDLEASLCGLKEAIDLFQVKQAENNQSKEAVEKALRGMRVLFDCDAVTEGDFYDPLGASKMDALLNGFNRISGTIAEQLDANDHYNESNAFVTTDLQALRVELSQSEVQLNNLLKKLNEPSKKDKGSANASGSARVQTLQPATPRFESVISSKFVSTPPIRIDMGGGGGRNAPVRLALQDDFNGKQFDALSNSLLAPAPPRSARKLKALDQSTGIDLNGTLNRSKINDPMQMLRTIHKNTSKVKAAPQANLSSLGSKWKQMQASFGFDEAPVPGAAVISPQTSPTDPSDPFTPLSGSECTRIERIPRTSENNTSLIAKSAAVIKVLEVSRNVLNLSTSPSGRLDALVPHTESHQQDVAPRLQLNDRTINDSLQLDPDFNIENDKNAFNVSHKFDFDQIGGEDDLQNISDSVLKDIIF
As for B1, the binding entry with Msd1-GFP (Drosophila) was “binds”.

B2: Dgrip91 (protein, UniProt Q9XYP8 1-917)
chain: MSQDRIAGIDVATNSTDISNIINEMIICIKGKQMPEVHEKAMDHLSKMIAANSRVIRDSNMLTERECVQKIMKLLSARNKKEEGKTVSDHFNELYRKLTLTKCDPHMRHSLMTHLLTMTDNSDAEKAVASEDPRTQCDNLTQILVSRLNSISSSIASLNEMGVVNGNGVGAAAVTGAAAVTGAAAVTGAAAVTGAAASHSYDATQSSIGLRKQSLPNYLDATKMLPESRHDIVMSAIYSFTGVQGKYLKKDVVTGRFKLDQQNIKFLTTGQAGMLLRLSELGYYHDRVVKFSDVSTGFNAIGSMGQALISKLKEELANFHGQVAMLHDEMQRFRQASVNGIANKGKKDSGPDAGDEMTLFKLLAWYIKPLHRMQWLTKIADACQVKKGGDLASTVYDFLDNGNDMVNKLVEDLLTAICGPLVRMISKWILEGGISDMHREFFVKSIKDVGVDRLWHDKFRLRLPMLPKFVPMDMANKILMTGKSINFLREICEEQGMMKERDELMKVMESSASQIFSYTPDTSWHAAVETCYQQTSKHVLDIMVGPHKLLDHLHGMRRYLLLGQGDFISILIENMKNELERPGLDIYANDLTSMLDSALRCTNAQYDDPDILNHLDVIVQRPFNGDIGWNIISLQYIVHGPLAAMLESTMPTYKVLFKPLWRMKHMEFVLSMKIWKEQMGNAKALRTMKSEIGKASHRLNLFTSEIMHFIHQMQYYVLFEVIECNWVELQKKMQKATTLDEILEAHEKFLQTILVGCFVSNKASVEHSLEVVYENIIELEKWQSSFYKDCFKELNARKELSKIVEKSEKKGVYGLTNKMILQRDQEAKIFAEKMDIACRGLEVIATDYEKAVSTFLMSLNSSDDPNLQLFGTRLDFNEYYKKRDTNLSKPLTFEHMRMSNVFAVNSRFVICTPSTQE
With B2, in experiment [1], the binding entry is listed as “binds”.

Source of the values: article doi:10.1101/700419.
